Data reported in PubChem BioAssay AID1345085 (National Center for Advancing Translational Sciences (NCATS), 2018).
This list was built around the results that the source calls inconclusive (neither active nor inactive); the mix of calls is not that of the screen. Where the call is inconclusive, the potency comes from a doubtful curve fit. Calls of active or inactive are those of the source. Calls follow the shape of the dose curve; as a rule, active = well fitted cell-killing curve with a large enough effect; inconclusive = small, poorly fitted or top-dose-only effect, or effect the other way; inactive = no such curve, though single readings can be large or run the other way.

system: HeLa; assay: Confirmatory qHTS for gynecologic anti-cancer compounds from libraries of approved drugs and bioactive compounds; conditions: gynecologic cancer cell panel viability, ATPlite luminescence, 48 h; series mostly up to 57.6 µM; also: nearly all actives have a fitted effect of over 55% in size
Procedure, shortened: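 Cells (1,000/well) plated 16 h, then exposed 48 h at 37 °C to 11 concentrations (1:3) from 57.5 uM to 0.977 nM. Viability by ATPlite luminescence after 15 min; IC50 derived, with HEK 293T used for selectivity index.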
Potency is read from the fitted curve at half-maximal effect.

| SMILES | Potency |
| --- | --- |
| CCOc1ccccc1-n1c(C(C)N2CCN(C(=O)COc3ccc(Cl)cc3)CC2)nc2ccccc2c1=O (stereo not drawn) | inconclusive: 15.3 µM [cytotoxic, single point] |
| CCN1CCN(C(=O)Cc2ccc(Nc3ncc(F)c(Nc4ccc(C(=O)Nc5ccccc5Cl)cc4)n3)cc2)CC1 | inconclusive: 21.7 µM [cytotoxic, partial curve] |
| O=C(O)Cc1ccccc1 | inactive |
